According to ChEMBL document CHEMBL5674883, “The Heterochromatin Landscape in Migrating Cells and the Importance of H3K27me3 for Associated Transcriptome Alterations” (Cells, 2018):
The source gives many values for each of these; only a part stands here.

Sequences of proteins named here, by UniProt entry; tags and fusion partners are left off.
UniProt Q61188, whole entry: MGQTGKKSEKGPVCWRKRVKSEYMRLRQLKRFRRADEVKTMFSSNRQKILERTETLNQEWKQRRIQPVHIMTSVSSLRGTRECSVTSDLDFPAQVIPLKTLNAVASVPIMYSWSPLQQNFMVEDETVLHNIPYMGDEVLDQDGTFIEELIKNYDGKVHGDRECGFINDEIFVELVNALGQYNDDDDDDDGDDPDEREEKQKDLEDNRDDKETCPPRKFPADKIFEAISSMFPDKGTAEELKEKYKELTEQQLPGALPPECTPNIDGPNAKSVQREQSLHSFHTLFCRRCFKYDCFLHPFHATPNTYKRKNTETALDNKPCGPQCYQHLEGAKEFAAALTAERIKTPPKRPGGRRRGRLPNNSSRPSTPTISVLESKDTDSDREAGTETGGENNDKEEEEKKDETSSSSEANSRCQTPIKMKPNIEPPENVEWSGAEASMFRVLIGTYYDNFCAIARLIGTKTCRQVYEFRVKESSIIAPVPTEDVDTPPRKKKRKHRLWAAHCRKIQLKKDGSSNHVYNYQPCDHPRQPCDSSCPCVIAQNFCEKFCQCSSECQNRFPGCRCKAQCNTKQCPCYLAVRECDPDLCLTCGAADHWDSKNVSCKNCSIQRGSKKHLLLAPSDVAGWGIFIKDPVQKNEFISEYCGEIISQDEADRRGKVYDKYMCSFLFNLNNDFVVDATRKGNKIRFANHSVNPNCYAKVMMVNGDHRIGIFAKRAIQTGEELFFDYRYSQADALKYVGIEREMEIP

Key:
Format in all cases: cell-based
[1] = molecular target: Histone-lysine N-methyltransferase EZH2 (Mus musculus) (UniProt Q61188); assay: Inhibition of EZH2 in mouse B16-F1 migrating cells assessed as fold change in H3K27me3-dependent regulated Tha1-mRNA expression at 3 uM measured by ChIP-seq analysis relative to control cells
[2] = molecular target: Histone-lysine N-methyltransferase EZH2 (Mus musculus) (UniProt Q61188); assay: Inhibition of EZH2 in mouse B16-F1 migrating cells assessed as fold change in H3K27me3-independent regulated Spsb1-mRNA expression at 3 uM measured by ChIP-seq analysis relative to control cells
[3] = molecular target: Histone-lysine N-methyltransferase EZH2 (Mus musculus) (UniProt Q61188); assay: Inhibition of EZH2 in mouse B16-F1 migrating cells assessed as fold change in H3K27me3-buffered regulated Ehd1-mRNA expression at 3 uM measured by ChIP-seq analysis relative to control cells
[4] = molecular target: Histone-lysine N-methyltransferase EZH2 (Mus musculus) (UniProt Q61188); assay: Inhibition of EZH2 in mouse B16-F1 migrating cells assessed as fold change in H3K27me3-buffered regulated Nfkb1-mRNA expression at 3 uM measured by ChIP-seq analysis relative to control cells
[5] = molecular target: Histone-lysine N-methyltransferase EZH2 (Mus musculus) (UniProt Q61188); assay: Inhibition of EZH2 in mouse B16-F1 migrating cells assessed as fold change in H3K27me3-buffered regulated Nck2-mRNA expression at 3 uM measured by ChIP-seq analysis relative to control cells
[6] = molecular target: Histone-lysine N-methyltransferase EZH2 (Mus musculus) (UniProt Q61188); assay: Inhibition of EZH2 in mouse B16-F1 migrating cells assessed as fold change in H3K27me3-buffered regulated Map3k12-mRNA expression at 3 uM measured by ChIP-seq analysis relative to control cells
[7] = molecular target: Histone-lysine N-methyltransferase EZH2 (Mus musculus) (UniProt Q61188); assay: Inhibition of EZH2 in mouse B16-F1 migrating cells assessed as fold change in H3K27me3-buffered regulated E4f1-mRNA expression at 3 uM measured by ChIP-seq analysis relative to control cells
[8] = molecular target: Histone-lysine N-methyltransferase EZH2 (Mus musculus) (UniProt Q61188); assay: Inhibition of EZH2 in mouse B16-F1 migrating cells assessed as fold change in H3K27me3-buffered regulated Nfkbiz-mRNA expression at 3 uM measured by ChIP-seq analysis relative to control cells
[9] = molecular target: Histone-lysine N-methyltransferase EZH2 (Mus musculus) (UniProt Q61188); assay: Inhibition of EZH2 in mouse B16-F1 migrating cells assessed as fold change in H3K27me3-buffered regulated 1810026B05Rik-mRNA expression at 3 uM measured by ChIP-seq analysis relative to control cells
[10] = molecular target: T1, RNA polymerase II (Mus musculus) (UniProt P08775+Q8CFI7+P97760+A0A3Q4L2S8+Q80UW8+P61219+P62488+Q923G2+P60898+O08740+Q63871+P62876); assay: Inhibition of RNA polymerase II in mouse B16-F1 migrating cells assessed as fold change in Slc16a3-RNA stability at 0.1 mM measured by ChIP-seq analysis relative to control cells
[11] = molecular target: T1, RNA polymerase II (Mus musculus); assay: Inhibition of RNA polymerase II in mouse B16-F1 migrating cells assessed as fold change in Rtl8b-RNA stability at 0.1 mM measured by ChIP-seq analysis relative to control cells
[12] = molecular target: T1, RNA polymerase II (Mus musculus); assay: Inhibition of RNA polymerase II in mouse B16-F1 migrating cells assessed as fold change in 2310039H08Rik-RNA stability at 0.1 mM measured by ChIP-seq analysis relative to control cells
[13] = molecular target: T1, RNA polymerase II (Mus musculus); assay: Inhibition of RNA polymerase II in mouse B16-F1 migrating cells assessed as fold change in Avpi1-RNA stability at 0.1 mM measured by ChIP-seq analysis relative to control cells
[14] = molecular target: T1, RNA polymerase II (Mus musculus); assay: Inhibition of RNA polymerase II in mouse B16-F1 migrating cells assessed as fold change in Tmem160-RNA stability at 0.1 mM measured by ChIP-seq analysis relative to control cells
[15] = molecular target: T1, RNA polymerase II (Mus musculus); assay: Inhibition of RNA polymerase II in mouse B16-F1 migrating cells assessed as fold change in Pvr-RNA stability at 0.1 mM measured by ChIP-seq analysis relative to control cells
[16] = molecular target: T1, RNA polymerase II (Mus musculus); assay: Inhibition of RNA polymerase II in mouse B16-F1 migrating cells assessed as fold change in Ift27-RNA stability at 0.1 mM measured by ChIP-seq analysis relative to control cells
[17] = molecular target: T1, RNA polymerase II (Mus musculus); assay: Inhibition of RNA polymerase II in mouse B16-F1 migrating cells assessed as fold change in Adi1-RNA stability at 0.1 mM measured by ChIP-seq analysis relative to control cells
[18] = molecular target: T1, RNA polymerase II (Mus musculus); assay: Inhibition of RNA polymerase II in mouse B16-F1 migrating cells assessed as fold change in Tcn2-RNA stability at 0.1 mM measured by ChIP-seq analysis relative to control cells
[19] = molecular target: T1, RNA polymerase II (Mus musculus); assay: Inhibition of RNA polymerase II in mouse B16-F1 migrating cells assessed as fold change in Mrpl28-RNA stability at 0.1 mM measured by ChIP-seq analysis relative to control cells
[20] = molecular target: T1, RNA polymerase II (Mus musculus); assay: Inhibition of RNA polymerase II in mouse B16-F1 migrating cells assessed as fold change in Pigk-RNA stability at 0.1 mM measured by ChIP-seq analysis relative to control cells
[21] = molecular target: T1, RNA polymerase II (Mus musculus); assay: Inhibition of RNA polymerase II in mouse B16-F1 migrating cells assessed as fold change in Usp8-RNA stability at 0.1 mM measured by ChIP-seq analysis relative to control cells
[22] = molecular target: T1, RNA polymerase II (Mus musculus); assay: Inhibition of RNA polymerase II in mouse B16-F1 migrating cells assessed as fold change in Ate1-RNA stability at 0.1 mM measured by ChIP-seq analysis relative to control cells
[23] = molecular target: T1, RNA polymerase II (Mus musculus); assay: Inhibition of RNA polymerase II in mouse B16-F1 migrating cells assessed as fold change in Pla2g4a-RNA stability at 0.1 mM measured by ChIP-seq analysis relative to control cells
[24] = molecular target: T1, RNA polymerase II (Mus musculus); assay: Inhibition of RNA polymerase II in mouse B16-F1 migrating cells assessed as fold change in Inpp4b-RNA stability at 0.1 mM measured by ChIP-seq analysis relative to control cells
[25] = molecular target: T1, RNA polymerase II (Mus musculus); assay: Inhibition of RNA polymerase II in mouse B16-F1 migrating cells assessed as fold change in Selenot-RNA stability at 0.1 mM measured by ChIP-seq analysis relative to control cells
[26] = molecular target: T1, RNA polymerase II (Mus musculus); assay: Inhibition of RNA polymerase II in mouse B16-F1 migrating cells assessed as fold change in Cetn3-RNA stability at 0.1 mM measured by ChIP-seq analysis relative to control cells
[27] = molecular target: T1, RNA polymerase II (Mus musculus); assay: Inhibition of RNA polymerase II in mouse B16-F1 migrating cells assessed as fold change in Tank-RNA stability at 0.1 mM measured by ChIP-seq analysis relative to control cells
[28] = molecular target: T1, RNA polymerase II (Mus musculus); assay: Inhibition of RNA polymerase II in mouse B16-F1 migrating cells assessed as fold change in Cav2-RNA stability at 0.1 mM measured by ChIP-seq analysis relative to control cells
[29] = molecular target: T1, RNA polymerase II (Mus musculus); assay: Inhibition of RNA polymerase II in mouse B16-F1 migrating cells assessed as fold change in Dhx9-RNA stability at 0.1 mM measured by ChIP-seq analysis relative to control cells
[30] = molecular target: T1, RNA polymerase II (Mus musculus); assay: Inhibition of RNA polymerase II in mouse B16-F1 migrating cells assessed as fold change in Stag2-RNA stability at 0.1 mM measured by ChIP-seq analysis relative to control cells

CCCc1cc(C)[nH]c(=O)c1CNC(=O)c1cc(-c2ccnc(N3CCN(C)CC3)c2)cc2c1cnn2C(C)C
log2FC [1]: -0.12 | log2FC [2]: 0.57 | log2FC [3]: 0.4 | log2FC [4]: -0.38 | log2FC [5]: -0.41 | log2FC [6]: -0.49 | log2FC [7]: -0.5 | log2FC [8]: -0.91 | log2FC [9]: -0.96

OC[C@H]1O[C@@H](n2cnc3cc(Cl)c(Cl)cc32)[C@H](O)[C@@H]1O
log2FC [10]: 0.98 | log2FC [11]: 0.75 | log2FC [12]: 0.64 | log2FC [13]: 0.62 | log2FC [14]: 0.61 | log2FC [15]: 0.54 | log2FC [16]: 0.46 | log2FC [17]: 0.45 | log2FC [18]: 0.4 | log2FC [19]: 0.39 | log2FC [20]: -0.41 | log2FC [21]: -0.46 | log2FC [22]: -0.5 | log2FC [23]: -0.5 | log2FC [24]: -0.52 | log2FC [25]: -0.66 | log2FC [26]: -0.66 | log2FC [27]: -0.67 | log2FC [28]: -0.68 | log2FC [29]: -0.68 | log2FC [30]: -0.74
